Results published in PubChem BioAssay AID248 (DTP/NCI, 2004).
The list does not hold the whole screen: it gathers some chemical classes. Not every dose and run of a compound is shown. T/C gives the treated animals as a percentage of the vehicle group. For survival time, the PubChem record calls one and a half times the control and up active, and a quarter to a half above the control has no call in these data; cut-offs in other NCI protocols can differ. Some entries show no survivor count and are marked so; the dose need not have been tolerated. Schedule codes are those of the source, taken here to give the interval after Q, in days (D) or hours (H), and the number of doses after X. Some doses were run more than once; the results are listed from low to high.

Test system: L1210 leukemia ip in BDF1 mice, survival T/C
Assay: NCI In Vivo Anticancer Drug Screen. Data for tumor model L1210 Leukemia (intraperitoneal) in B6D2F1 (BDF1) mice
Conditions: T/C endpoint: mean survival time, higher T/C = longer survival
[1] = dose: 25.0 mg/kg/injection, schedule: Q04DX003 (ip), vehicle: saline
[2] = dose: 50.0 mg/kg/injection, schedule: Q04DX003 (ip), vehicle: saline
[3] = dose: 100.0 mg/kg/injection, schedule: Q04DX003 (ip), vehicle: saline

With `CCN(CC)CCOC(=O)C(O)(c1ccccc1)c1ccccc1C` (stereo unspecified) the T/C (dose: 75.0 mg/kg/injection, schedule: Q01DX001 (ip), vehicle: saline) was 100 % of control [survivor count not shown].
For `Cc1cc(C)c(O)c(CN(CC(C)Cl)CC(C)Cl)c1` (stereo unspecified), the T/C (dose: 100.0 mg/kg/injection, schedule: Q01DX001 (ip), vehicle: carboxymethylcellulose (CMC)) was 106 % of control [survivor count not shown], the T/C (dose: 177.0 mg/kg/injection, schedule: Q01DX001 (ip), vehicle: carboxymethylcellulose (CMC)) was 112 [survivor count not shown] and 116 % of control [survivor count not shown] and the T/C (dose: 200.0 mg/kg/injection, schedule: Q01DX001 (ip), vehicle: carboxymethylcellulose (CMC)) was 109 % of control [survivor count not shown]. For the same compound, the T/C (dose: 266.0 mg/kg/injection, schedule: Q01DX001 (ip), vehicle: carboxymethylcellulose (CMC)) was 112 [survivor count not shown] and 118 % of control [survivor count not shown] and the T/C (dose: 400.0 mg/kg/injection, schedule: Q01DX001 (ip), vehicle: carboxymethylcellulose (CMC)) was 107 [survivor count not shown], 118 [survivor count not shown], 135 % of control [survivor count not shown].
In the case of `CN1CCCC(OC(=O)C(O)(c2ccccc2)C2CCCC2)C1` (stereo unspecified), the T/C (dose: 12.5 mg/kg/injection, schedule: Q01DX009 (ip), vehicle: saline) is reported as 97 % of control [survivor count not shown], the T/C (dose: 25.0 mg/kg/injection, schedule: Q01DX009 (ip), vehicle: saline) is reported as 91 % of control [survivor count not shown] and the T/C [1] is reported as 97 % of control [survivor count not shown]. For the same compound, the T/C (dose: 50.0 mg/kg/injection, schedule: Q01DX009 (ip), vehicle: saline) was 93 % of control [survivor count not shown], the T/C [2] was 97 % of control [survivor count not shown] and the T/C [3] was 100 % of control [survivor count not shown]. The T/C (dose: 200.0 mg/kg/injection, schedule: Q04DX003 (ip), vehicle: saline) was 97 % of control [survivor count not shown].
For `CN1C2CCC(OC(=O)C(O)(c3ccccc3)C3CCCC3)C1CC2` (stereo unspecified), the T/C (dose: 75.0 mg/kg/injection, schedule: Q04DX002 (ip), vehicle: saline with Tween-80) was 102 % of control [survivor count not shown], the T/C (dose: 150.0 mg/kg/injection, schedule: Q04DX002 (ip), vehicle: saline with Tween-80) was 102 % of control [survivor count not shown] and the T/C (dose: 300.0 mg/kg/injection, schedule: Q04DX002 (ip), vehicle: saline with Tween-80) was 94 % of control [survivor count not shown].
For `O=C(OC1CCCN(CO)C1)C(O)(c1ccccc1)c1ccccc1` (stereo unspecified), the T/C [1] was 98 % of control [survivor count not shown], the T/C [2] was 104 % of control [survivor count not shown] and the T/C [3] was 96 % of control [survivor count not shown].
With `C=CCN(CCCl)CCCl` the T/C (dose: 0.09 mg/kg/injection, schedule: Q01DX009 (ip), vehicle: saline) was 104 % of control [survivor count not shown], the T/C (dose: 0.1 mg/kg/injection, schedule: Q01DX009 (ip), vehicle: saline) was 110 % of control [survivor count not shown] and the T/C (dose: 0.13 mg/kg/injection, schedule: Q01DX009 (ip), vehicle: saline) was 109 % of control [survivor count not shown]. For the same compound, the T/C (dose: 0.2 mg/kg/injection, schedule: Q01DX009 (ip), vehicle: saline) was 113 [survivor count not shown] and 143 % of control [survivor count not shown], the T/C (dose: 0.3 mg/kg/injection, schedule: Q01DX009 (ip), vehicle: saline) was 120 % of control [survivor count not shown] and the T/C (dose: 0.4 mg/kg/injection, schedule: Q01DX001 (ip), vehicle: saline) was 119 % of control [survivor count not shown]. The T/C (dose: 0.4 mg/kg/injection, schedule: Q01DX009 (ip), vehicle: saline) was 123 % of control [survivor count not shown], the T/C (dose: 0.5 mg/kg/injection, schedule: Q01DX001 (ip), vehicle: saline) was 122 % of control [survivor count not shown] and the T/C (dose: 0.5 mg/kg/injection, schedule: Q01DX009 (ip), vehicle: saline) was 135 % of control [survivor count not shown]. The T/C (dose: 0.6 mg/kg/injection, schedule: Q01DX001 (ip), vehicle: saline) was 134 % of control [survivor count not shown], the T/C (dose: 1.0 mg/kg/injection, schedule: Q01DX001 (ip), vehicle: saline) was 128 [survivor count not shown] and 132 % of control [survivor count not shown] and the T/C (dose: 1.0 mg/kg/injection, schedule: Q01DX009 (ip), vehicle: saline) was 91 % of control [survivor count not shown]. For the same compound, the T/C (dose: 1.5 mg/kg/injection, schedule: Q01DX001 (ip), vehicle: saline) was 136 % of control [survivor count not shown], the T/C (dose: 2.0 mg/kg/injection, schedule: Q01DX001 (ip), vehicle: saline) was 131 % of control [survivor count not shown] and the T/C (dose: 2.5 mg/kg/injection, schedule: Q01DX001 (ip), vehicle: saline) was 112 % of control [survivor count not shown]. The T/C (dose: 3.0 mg/kg/injection, schedule: Q01DX009 (ip), vehicle: saline) was 94 % of control [survivor count not shown] and the T/C (dose: 4.4 mg/kg/injection, schedule: Q01DX009 (ip), vehicle: saline) was 88 % of control [survivor count not shown].
In the case of `C#CCN(CCCl)CCCl`, the T/C (dose: 4.0 mg/kg/injection, schedule: Q01DX001 (ip), vehicle: saline) is reported as 117 % of control [survivor count not shown], the T/C (dose: 4.0 mg/kg/injection, schedule: Q01DX015 (ip), vehicle: saline) is reported as 119 % of control [survivor count not shown] and the T/C (dose: 7.1 mg/kg/injection, schedule: Q01DX001 (ip), vehicle: saline) is reported as 109 % of control [survivor count not shown]. The T/C (dose: 8.0 mg/kg/injection, schedule: Q01DX001 (ip), vehicle: saline) was 114 % of control [survivor count not shown], the T/C (dose: 8.0 mg/kg/injection, schedule: Q01DX015 (ip), vehicle: saline) was 132 % of control [survivor count not shown] and the T/C (dose: 10.67 mg/kg/injection, schedule: Q01DX001 (ip), vehicle: saline) was 114 % of control [survivor count not shown]. For the same compound, the T/C (dose: 16.0 mg/kg/injection, schedule: Q01DX001 (ip), vehicle: saline) was 117 [survivor count not shown], 129 [survivor count not shown], 138 % of control [survivor count not shown], the T/C (dose: 24.0 mg/kg/injection, schedule: Q01DX001 (ip), vehicle: saline) was 143 % of control [survivor count not shown] and the T/C (dose: 32.0 mg/kg/injection, schedule: Q01DX001 (ip), vehicle: saline) was 125 [survivor count not shown] and 132 % of control [survivor count not shown].
`CN1CCCC(CCCOC(=O)C(O)(c2ccccc2)c2ccccc2)C1` (stereo unspecified) was tested, and the T/C (dose: 25.0 mg/kg/injection, schedule: Q04DX003 (ip), vehicle: Klucel (hydroxypropylcellulose) (HPC)) was 100 % of control [survivor count not shown], the T/C (dose: 50.0 mg/kg/injection, schedule: Q04DX003 (ip), vehicle: Klucel (hydroxypropylcellulose) (HPC)) was 100 % of control [survivor count not shown] and the T/C (dose: 75.0 mg/kg/injection, schedule: Q04DX003 (ip), vehicle: Klucel (hydroxypropylcellulose) (HPC)) was 100 % of control [survivor count not shown].
`N#CC(C#N)=Cc1ccccc1Cl` was tested, and the T/C (dose: 12.5 mg/kg/injection, schedule: Q04DX003 (ip), vehicle: saline with Tween-80) was 94 % of control [survivor count not shown], the T/C (dose: 25.0 mg/kg/injection, schedule: Q04DX003 (ip), vehicle: saline with Tween-80) was 94 % of control [survivor count not shown] and the T/C (dose: 50.0 mg/kg/injection, schedule: Q04DX003 (ip), vehicle: saline with Tween-80) was 91 % of control [survivor count not shown].
